{"source": "PubChem BioAssay AID504774 (Drosophila RNAi Screening Center, 2011)", "aim": "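Knock-downs that shift viability of MMS-exposed cells relative to untreated ones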 (primary screen)", "cell system": "Drosophila Kc167 cells", "knock-down reagent": "long dsRNA against Drosophila genes, about 0.25 µg dsRNA per well", "duration": "about 6 days: 3 days knock-down, then 3 days with or without MMS", "conditions": "methyl methanesulphonate 0.004% (w/v) for 3 days after knock-down", "measured": "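Viability in wells given MMS, read as ATP luminescence, normalised by quantiles plate by plate and averaged across replicates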", "direction": "mean viability with MMS: higher = more surviving cells after MMS", "note": "In all, the deposit lists about 23,000 reagents; below is a random part of those with a known target gene and a result. 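Values are quantile-normalised luminescence on an arbitrary scale; higher means more cells surviving MMS.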 The numbers tell different reagents against one gene apart. Names joined by + are all predicted targets of the reagent. Not all columns of the deposit are shown. Reagent sequences are not shown."}
{"target": "CG18764", "reagent no.": 1, "mean viability with MMS": 3.44e6}
{"target": "CG31681", "reagent no.": 1, "mean viability with MMS": 3.61e6}
{"target": "scpr-B", "reagent no.": 1, "mean viability with MMS": 3.49e6}
{"target": "VAChT + ChAT", "reagent no.": 1, "mean viability with MMS": 3.44e6}
{"target": "eEF1gamma", "reagent no.": 1, "mean viability with MMS": 3.29e6}
{"target": "CG17375", "reagent no.": 1, "mean viability with MMS": 3.61e6}
{"target": "CG15373", "reagent no.": 1, "mean viability with MMS": 3.64e6}
{"target": "CG14313", "reagent no.": 1, "mean viability with MMS": 3.45e6}
{"target": "bowl", "reagent no.": 1, "mean viability with MMS": 3.58e6}
{"target": "inc", "reagent no.": 1, "mean viability with MMS": 3.61e6}
{"target": "inc", "reagent no.": 2, "mean viability with MMS": 3.51e6}
{"target": "MED4", "reagent no.": 1, "mean viability with MMS": 3.28e6}
{"target": "asRNA:CR42547 + CG15674", "reagent no.": 1, "mean viability with MMS": 3.59e6}
{"target": "Rac2", "reagent no.": 1, "mean viability with MMS": 3.63e6}

Reformatted: entries from further up
target,reagent no.,mean viability with MMS
VAChT + ChAT,1,3.44e6
eEF1gamma,1,3.29e6
